Results as given in paper PMC12048156.
These are yes or no findings as the source states them, for the method shown. Binding seen in cells or lysates may run through a third protein. A result given as binding can be weak or reduced; the word gives no strength.

Target: T1, Irf8 (mouse (endogenous; cells of the co-IP not named)) (UniProt P23611)
T1 sequence: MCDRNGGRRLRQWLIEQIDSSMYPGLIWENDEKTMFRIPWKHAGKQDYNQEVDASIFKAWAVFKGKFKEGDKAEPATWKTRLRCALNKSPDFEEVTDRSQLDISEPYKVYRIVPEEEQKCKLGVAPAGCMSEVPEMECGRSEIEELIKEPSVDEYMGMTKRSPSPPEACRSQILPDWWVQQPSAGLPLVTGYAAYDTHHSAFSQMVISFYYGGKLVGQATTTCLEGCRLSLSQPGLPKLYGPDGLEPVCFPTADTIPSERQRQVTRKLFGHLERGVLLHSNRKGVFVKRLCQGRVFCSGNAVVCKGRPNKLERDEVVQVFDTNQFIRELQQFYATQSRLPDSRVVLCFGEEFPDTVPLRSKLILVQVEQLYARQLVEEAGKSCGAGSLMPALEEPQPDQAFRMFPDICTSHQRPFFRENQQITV
Test: co-IP; endogenous proteins in whole-cell lysate (50 mM Tris-HCl, 1% Nonidet-P40, 0.1% SDS, 150 mM NaCl); 1000 ug protein with antibodies against Aff3ir-ORF2, Irf5 or Irf8 at 4 °C for 12 hr, Protein A/G PLUS-Agarose beads, five washes with lysis buffer, Western blot

Aff3ir-ORF2 (mouse)
binding: binds
